{"source": "PubChem BioAssay AID1053208 (Peter MacCallum Cancer Centre, 2014)", "assay": "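Synthetic lethal interactions between gene loss and doxorubicin in osteosarcoma cells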 (primary screen)", "cells": "mouse osteosarcoma cells, early-passage culture from an engineered mouse model of fibroblastic bone tumour", "reagents": "siRNA pool against mouse genes, 40 nM", "duration": "about 120 h (48 h before drug, then 72 h with drug)", "challenge": "doxorubicin 100 nM for 72 h, roughly 30-40% inhibitory dose", "read-out": "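Luminescent ATP signal taken as viability with or without 100 nM doxorubicin for 72 h; mean of two wells set against non-targeting siRNA and turned into robust z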", "reading the numbers": "viability z-score with doxorubicin: higher = more viable cells under doxorubicin; viability z-score without drug: higher = more viable cells with knock-down alone", "hit rule": "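a pool counts as active when its viability z-score with doxorubicin is -2 or below and its z-score without drug lies between -2 and 2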", "note": "In all, the deposit lists about 17,000 reagents; this is a part drawn at random. In the full data, 788 (4.7%) were called active. 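Calls rest on z-score classes alone; an extra cut-off of viability at most 70% of control was not applied to them.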 Unmarked entries are inactive. Further read-outs or replicates are left out here."}
{"Target gene":"Ccn5 (cellular communication network factor 5)","combined z-score class":"high cell count without drug only","viability z-score with doxorubicin":0.22,"viability z-score without drug":2.02}
{"Target gene":"Slco2a1","combined z-score class":"no change with or without drug","viability z-score with doxorubicin":-0.9,"viability z-score without drug":-0.51}
{"Target gene":"Rfesd (Rieske (Fe-S) domain containing)","combined z-score class":"no change with or without drug","viability z-score with doxorubicin":-0.45,"viability z-score without drug":1.01}
{"Target gene":"Itpkc (inositol 1,4,5-trisphosphate 3-kinase C)","combined z-score class":"no change with or without drug","viability z-score with doxorubicin":-1.12,"viability z-score without drug":-0.84}
{"Target gene":"Fnbp4 (formin binding protein 4)","combined z-score class":"no change with or without drug","viability z-score with doxorubicin":-0.45,"viability z-score without drug":-0.51}
{"Target gene":"Nxph1 (neurexophilin 1)","combined z-score class":"no change with or without drug","viability z-score with doxorubicin":-0.79,"viability z-score without drug":-0.51}
{"Target gene":"Dyrk3 (dual-specificity tyrosine phosphorylation regulated kinase 3)","combined z-score class":"no change with or without drug","viability z-score with doxorubicin":0,"viability z-score without drug":-0.84}
{"Target gene":"Oas1f (2'-5' oligoadenylate synthetase 1F)","combined z-score class":"no change with or without drug","viability z-score with doxorubicin":1.12,"viability z-score without drug":-0.51}
{"Target gene":"A830073O21Rik (RIKEN cDNA A830073O21 gene)","combined z-score class":"no change with or without drug","viability z-score with doxorubicin":0.34,"viability z-score without drug":-0.51}
{"Target gene":"Ehbp1l1 (EH domain binding protein 1-like 1)","combined z-score class":"no change with or without drug","viability z-score with doxorubicin":-0.9,"viability z-score without drug":-0.67}
{"Target gene":"Sgcb (sarcoglycan, beta (dystrophin-associated glycoprotein))","combined z-score class":"no change with or without drug","viability z-score with doxorubicin":-1.35,"viability z-score without drug":-1.01}
{"Target gene":"Tdp1 (tyrosyl-DNA phosphodiesterase 1)","combined z-score class":"no change with or without drug","viability z-score with doxorubicin":0.22,"viability z-score without drug":0.51}
{"Target gene":"Yipf4 (Yip1 domain family, member 4)","combined z-score class":"high cell count with doxorubicin only","viability z-score with doxorubicin":2.14,"viability z-score without drug":0.67}
{"Target gene":"Naaa (N-acylethanolamine acid amidase)","combined z-score class":"no change with or without drug","viability z-score with doxorubicin":-0.11,"viability z-score without drug":1.18}
{"Target gene":"Smox (spermine oxidase)","combined z-score class":"no change with or without drug","viability z-score with doxorubicin":0.45,"viability z-score without drug":1.01}
{"Target gene":"Lypd11 (Ly6/PLAUR domain containing 11)","combined z-score class":"no change with or without drug","viability z-score with doxorubicin":0,"viability z-score without drug":-0.67}
{"Target gene":"E330013P04Rik (RIKEN cDNA E330013P04 gene)","combined z-score class":"no change with or without drug","viability z-score with doxorubicin":0,"viability z-score without drug":1.85}
{"Target gene":"Slu7 (SLU7 splicing factor homolog (S. cerevisiae))","combined z-score class":"no change with or without drug","viability z-score with doxorubicin":-1.12,"viability z-score without drug":0.67}
{"Target gene":"Foxred1 (FAD-dependent oxidoreductase domain containing 1)","combined z-score class":"no change with or without drug","viability z-score with doxorubicin":0.34,"viability z-score without drug":-0.51}
{"Target gene":"Akr1b10 (aldo-keto reductase family 1, member B10)","combined z-score class":"no change with or without drug","viability z-score with doxorubicin":1.12,"viability z-score without drug":0.84}
{"Target gene":"Rtn1 (reticulon 1)","combined z-score class":"high cell count without drug only","viability z-score with doxorubicin":0.56,"viability z-score without drug":2.7}
{"Target gene":"F2rl1 (F2R like trypsin receptor 1)","combined z-score class":"no change with or without drug","viability z-score with doxorubicin":0,"viability z-score without drug":-0.17}
{"Target gene":"Or1o2 (olfactory receptor family 1 subfamily O member 2)","combined z-score class":"no change with or without drug","viability z-score with doxorubicin":-1.91,"viability z-score without drug":-0.51}
{"Target gene":"Slco2b1","combined z-score class":"no change with or without drug","viability z-score with doxorubicin":0.56,"viability z-score without drug":0.17}
{"Target gene":"Ivns1abp (influenza virus NS1A binding protein)","combined z-score class":"no change with or without drug","viability z-score with doxorubicin":-0.79,"viability z-score without drug":0.51}
{"Target gene":"Ppp6r2 (protein phosphatase 6, regulatory subunit 2)","combined z-score class":"no change with or without drug","viability z-score with doxorubicin":0.11,"viability z-score without drug":0}
{"Target gene":"Mtpn (myotrophin)","combined z-score class":"no change with or without drug","viability z-score with doxorubicin":1.01,"viability z-score without drug":0.84}
{"Target gene":"Gpr65 (G-protein coupled receptor 65)","combined z-score class":"no change with or without drug","viability z-score with doxorubicin":-0.22,"viability z-score without drug":-0.17}
